Reference: patent US20160046678A1 (ZYNGENIA, published 2016)
Results are given in words; binding and its absence hold for the method and conditions named. Some entries that bind do so weakly or less than the wild type.

Molecular target: T1, Angiopoietin-2 (Ang2) (human, UniProt O15123 19-496, biotin label in Examples 22-24)
T1 construct: also called rhAng2; recombinant Ang2
T1 sequence (looked up): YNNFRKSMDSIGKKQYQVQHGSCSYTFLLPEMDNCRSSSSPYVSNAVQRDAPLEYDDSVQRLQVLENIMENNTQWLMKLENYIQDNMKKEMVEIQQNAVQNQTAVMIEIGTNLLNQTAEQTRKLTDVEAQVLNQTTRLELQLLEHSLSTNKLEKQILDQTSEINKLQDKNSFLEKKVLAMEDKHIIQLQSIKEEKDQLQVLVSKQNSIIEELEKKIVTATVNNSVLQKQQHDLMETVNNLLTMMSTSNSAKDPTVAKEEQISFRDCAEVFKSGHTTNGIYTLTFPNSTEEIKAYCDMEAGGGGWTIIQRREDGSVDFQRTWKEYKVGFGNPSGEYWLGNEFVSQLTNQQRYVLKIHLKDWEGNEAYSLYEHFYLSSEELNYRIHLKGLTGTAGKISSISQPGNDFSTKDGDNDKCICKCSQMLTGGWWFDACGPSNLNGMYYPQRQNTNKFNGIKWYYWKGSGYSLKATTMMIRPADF
Assay: Example 48, method not detailed

Binder | binding
FNSTLFDCFFYPNPMHCY [ANG817] | binds
RSLPIYECYFYPNPPHCY [ANG820] | binds
VSLYYSACYFYPNPPWCN [ANG822] | binds
SVLDCYFYPNPAHCYENV [ANG823] | binds
VSTDCYFYPNPPHCYSVL [ANG824] | binds
QGTHMLDCYFYPNPPNCY [ANG825] | binds
TPSDCFFYPNPPHCYLMN [ANG826] | binds
TWGVCYFYPNPPHCYEQL [ANG827] | binds
VEEACYFYPNPPHCYEAV [ANG829] | binds
DDSDCFFYPNPPRCYETY [ANG832] | binds
YYYSYTHCYYYPNPTHCY [ANG834] | binds
MTWFPNDCYFYPNPPYCY [ANG835] | binds
LQLECYYYPNPTHCYETR [ANG836] | binds
MGISFLDCYFFPNPQHCY [ANG837] | binds
PSPYYSDCAWYPNPPYCY [ANG838] | binds
SMSVYIDCFSYPNPPRCY [ANG840] | binds
DCYFYPNPTHCYLKGGFV [ANG841] | binds
DHSACYAFPNPSSCYNSR [ANG844] | binds
PLNACYFYPNPPHCYFLK [ANG845] | binds
LLSVMQDCYFYPNPSHCY [ANG846] | binds
PPPSSYECYFYPNPAHCY [ANG847] | binds
SHTDCYYYPNPPHCYLEN [ANG848] | binds

Binder | binding
AGHECYFYPNPPHCYSEQ [ANG849] | binds
AGMNDFDCYFFPNPPHCF [ANG850] | binds
GSRDCYFYPNPKYCYIQD [ANG853] | binds
SDSFLRDCYFYPNPPHCY [ANG854] | binds
AWKDCFFYPNPSFCSYSS [ANG855] | binds
PSLYELDCYFYPNPPHCY [ANG856] | binds
YLHSFEDCYFYPNPAHCY [ANG857] | binds
LTIEHQDCYFYPNPPHCY [ANG858] | binds
YVMGGDDCYFYPNPPECY [ANG861] | binds
GNIACYFYPNPPHCYNVH [ANG862] | binds
SGMECYFFPNPPHCYDLK [ANG863] | binds
LGLRHYACYLYPNPPHCY [ANG866] | binds
ARSSQFECYFYPNPPHCY [ANG867] | binds
YPGPFTGCYFYPNPLQCY [ANG869] | binds
NERDCYFYPNPPHCYQNG [ANG871] | binds
LDSECFFYPNPPHCYNTL [ANG872] | binds
PYLDCAEYPNPLYCYESE [ANG873] | binds
IGYPFSDCYFYPNPPHCY [ANG874] | binds
WNFDCYFYPNPPLCYNME [ANG875] | binds
AAVECLFYPNPPHCYERA [ANG877] | binds
SNVDCYFYPNPPNCFVHD [ANG879] | binds
VLSFFQDCYFYPNPANCY [ANG880] | binds

Binder | binding
SPPVFWECYFYPNPTHCY [ANG881] | binds
PNQSNYDCYFYPNPPHCY [ANG882] | binds
LAFDLSDCYFYPNPPHCS [ANG883] | binds
FNEECYFYPNPPHCYGEY [ANG884] | binds
LVVTAFDCYFYPNPPYCY [ANG885] | binds
SLNPSVDCYFYPNPAHCY [ANG886] | binds
ALHDCYFYPNPQHCYQA [ANG887] | binds
FSPGEVDCYFYPNPPHCK [ANG889] | binds
ADTDCYFYPNPPHCYDIT [ANG890] | binds
LSLELSECYFFPNPPHCY [ANG891] | binds
AVLEHFDCYFYPNPPHCY [ANG894] | binds
MLWDMSGCYFYPNPPHCY [ANG895] | binds
SKQDCYFYPNPSHCYLDQ [ANG896] | binds
YDLLLHDCYVFPNPPHCY [ANG897] | binds
ECYFYPNPPDCFYLHQRR [ANG898] | binds
DHVECYFYPNPLHCYKDR [ANG899] | binds
PRPLVIDCYFFPNPPHCY [ANG901] | binds
DCYFYPNPPHCYIEHKPS [ANG902] | binds
SHFSFKDCYFYPNPAHCY [ANG903] | binds
SLRDCYFYPNPAHCRNNM [ANG904] | binds
